Among the data in publication PMC6718625, “CryoEM structures of Arabidopsis DDR complexes involved in RNA-directed DNA methylation” (Nature Communications, 2019) are binding values, retold here.

For this assay, the target named is T1, RDM1-3xFLAG (RNA-DIRECTED DNA …ON 1) (Arabidopsis) (UniProt Q9LUJ3).
T1 sequence: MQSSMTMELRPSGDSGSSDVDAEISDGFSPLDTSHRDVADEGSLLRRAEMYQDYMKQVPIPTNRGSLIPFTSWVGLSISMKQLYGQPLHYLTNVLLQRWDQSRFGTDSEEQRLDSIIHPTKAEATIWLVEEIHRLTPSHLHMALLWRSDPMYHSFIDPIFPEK
The assay can be described thus: affinity purification with mass spectrometry; anti-FLAG M2 magnetic beads on extracts of inflorescences of RDM1-3xFLAG lines; IP buffer 50 mM Tris pH 7.6, 150 mM NaCl, 5 mM MgCl2, 10% glycerol, 0.1% NP40; 4 °C 3 h; eluted with 3xFLAG peptide; untransformed WS as control.

Results are given in words; binding and its absence hold for the method and conditions named. Binding seen in cells or lysates may run through a third protein. Here binding means that the protein was enriched with, or labelled near, the bait; the list need not be complete. Where a sequence is shown, tags or fusion partners need not be part of it.

With “… IN MERISTEM … 3 (DMS3), endogenous (from UniProt Q94A79 1-420)”, the binding entry was “binds”.
